Among the data in PMC8384837 are binding signal (log2 enrichment (interaction score)) values, retold here.

The list shows a part of the results. At the low end of the ranking the order means little. Some results are limits rather than exact numbers.

This assay addresses T1, PUM1 PUF domain R1-QFR R2-VFQ R7-NPG S863Q + R864F + Q867R + N899V + Y900F + S1079N + N1080P + E1083G (UniProt Q14671).
T1 sequence: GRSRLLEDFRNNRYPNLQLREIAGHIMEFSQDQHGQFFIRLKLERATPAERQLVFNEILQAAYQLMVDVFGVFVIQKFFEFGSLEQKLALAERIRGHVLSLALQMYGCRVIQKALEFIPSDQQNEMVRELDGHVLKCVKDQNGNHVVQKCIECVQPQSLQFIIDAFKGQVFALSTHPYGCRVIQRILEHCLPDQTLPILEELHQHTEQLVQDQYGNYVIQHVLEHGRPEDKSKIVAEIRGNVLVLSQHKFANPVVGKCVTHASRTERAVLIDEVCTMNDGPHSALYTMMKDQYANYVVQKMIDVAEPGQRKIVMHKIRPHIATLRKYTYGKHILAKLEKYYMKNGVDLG
The settings on record: yeast three-hybrid, YBZ-1, SC-Leu-His + 0.5 mM 3-AT, 4 days.
In the case of “GGCUAGAACUAGUGGAUCCCCCGGCGCCCGGCGGCUCGAGCCCGGGUAAGUUCAAUAAGUCUGCAUGCCGCCGGGCGCCAUGCCUGCAGGUCGACUCUAGAAAACAUG”, the binding signal (log2 enrichment (interaction score)) was -4.13. In the case of “GGCUAGAACUAGUGGAUCCCCCGGCGCCCGGCGGCUCGAGCCCGGGUAAGGCAGUGAAGUCUGCAUGCCGCCGGGCGCCAUGCCUGCAGGUCGACUCUAGAAAACAUG” it was less than -5.36. The figure for “GGCUAGAACUAGUGGAUCCCCCGGCGCCCGGCGGCUCGAGCCCGGGUAAGUAAGUGUAGUCUGCAUGCCGCCGGGCGCCAUGCCUGCAGGUCGACUCUAGAAAACAUG” is -5.59; for “GGCUAGAACUAGUGGAUCCCCCGGCGCCCGGCGGCUCGAGCCCGGGUAAGGUUCGAUAGUCUGCAUGCCGCCGGGCGCCAUGCCUGCAGGUCGACUCUAGAAAACAUG” it is -5.13; for “GGCUAGAACUAGUGGAUCCCCCGGCGCCCGGCGGCUCGAGCCCGGGUAAGAUGACGUAGUCUGCAUGCCGCCGGGCGCCAUGCCUGCAGGUCGACUCUAGAAAACAUG” it is -6.33.

As for “GGCUAGAACUAGUGGAUCCCCCGGCGCCCGGCGGCUCGAGCCCGGGUAAGUUUAUAGUGUCUGCAUGCCGCCGGGCGCCAUGCCUGCAGGUCGACUCUAGAAAACAUG”, the binding signal (log2 enrichment (interaction score)) is -5.27.

As to “GGCUAGAACUAGUGGAUCCCCCGGCGCCCGGCGGCUCGAGCCCGGGUAAGGGUAAGGCGUCUGCAUGCCGCCGGGCGCCAUGCCUGCAGGUCGACUCUAGAAAACAUG”, the binding signal (log2 enrichment (interaction score)) is less than -5.76. The figure for “GGCUAGAACUAGUGGAUCCCCCGGCGCCCGGCGGCUCGAGCCCGGGUAAGUUGGCGAUGUCUGCAUGCCGCCGGGCGCCAUGCCUGCAGGUCGACUCUAGAAAACAUG” is -5.92.
